Results reported in PMC6238616.
These are yes or no findings as the source states them, for the method shown. Binding seen in cells or lysates may run through a third protein. For part of these data: Sequences can lack the tags named with a protein.

By UniProt entry, the sequences of proteins in these tests, tags left out.
UniProt P46379: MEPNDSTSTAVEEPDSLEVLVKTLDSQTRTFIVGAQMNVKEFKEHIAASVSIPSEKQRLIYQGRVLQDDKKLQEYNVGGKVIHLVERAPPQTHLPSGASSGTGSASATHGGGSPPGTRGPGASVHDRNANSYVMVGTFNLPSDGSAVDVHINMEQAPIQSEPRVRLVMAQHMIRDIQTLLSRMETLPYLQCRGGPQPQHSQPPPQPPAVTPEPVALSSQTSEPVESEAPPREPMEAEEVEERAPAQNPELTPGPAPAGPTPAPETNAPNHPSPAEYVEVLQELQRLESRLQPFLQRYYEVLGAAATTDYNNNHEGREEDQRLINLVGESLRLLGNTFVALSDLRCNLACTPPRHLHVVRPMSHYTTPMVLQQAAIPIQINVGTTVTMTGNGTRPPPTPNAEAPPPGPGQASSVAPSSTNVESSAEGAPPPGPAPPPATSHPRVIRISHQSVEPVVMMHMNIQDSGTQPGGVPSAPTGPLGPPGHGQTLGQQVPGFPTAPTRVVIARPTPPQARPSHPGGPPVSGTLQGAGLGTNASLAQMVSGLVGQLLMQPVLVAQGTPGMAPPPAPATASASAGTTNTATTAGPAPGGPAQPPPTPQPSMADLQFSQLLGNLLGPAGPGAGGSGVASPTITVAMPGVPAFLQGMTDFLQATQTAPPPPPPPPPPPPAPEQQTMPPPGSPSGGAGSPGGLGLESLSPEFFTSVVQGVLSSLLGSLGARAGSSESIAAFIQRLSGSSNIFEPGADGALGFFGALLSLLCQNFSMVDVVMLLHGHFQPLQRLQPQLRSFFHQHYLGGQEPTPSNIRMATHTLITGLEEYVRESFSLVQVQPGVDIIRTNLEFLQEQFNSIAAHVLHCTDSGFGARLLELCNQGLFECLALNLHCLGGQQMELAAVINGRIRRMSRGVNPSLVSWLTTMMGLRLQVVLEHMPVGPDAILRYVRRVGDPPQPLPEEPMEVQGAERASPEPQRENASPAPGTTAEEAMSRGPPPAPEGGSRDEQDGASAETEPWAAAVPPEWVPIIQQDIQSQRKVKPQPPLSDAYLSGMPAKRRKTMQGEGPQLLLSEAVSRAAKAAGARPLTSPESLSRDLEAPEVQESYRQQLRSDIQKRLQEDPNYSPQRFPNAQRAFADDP
UniProt Q99873: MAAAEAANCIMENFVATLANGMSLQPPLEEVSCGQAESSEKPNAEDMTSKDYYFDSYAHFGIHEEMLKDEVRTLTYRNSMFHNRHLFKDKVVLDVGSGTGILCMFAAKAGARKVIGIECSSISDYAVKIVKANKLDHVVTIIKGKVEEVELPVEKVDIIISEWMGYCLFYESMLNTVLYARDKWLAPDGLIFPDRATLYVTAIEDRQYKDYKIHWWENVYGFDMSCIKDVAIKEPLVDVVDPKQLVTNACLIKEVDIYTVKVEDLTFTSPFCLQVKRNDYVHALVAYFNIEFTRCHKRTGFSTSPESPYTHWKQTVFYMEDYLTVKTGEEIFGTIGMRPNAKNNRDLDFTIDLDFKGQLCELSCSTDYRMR
UniProt Q16637: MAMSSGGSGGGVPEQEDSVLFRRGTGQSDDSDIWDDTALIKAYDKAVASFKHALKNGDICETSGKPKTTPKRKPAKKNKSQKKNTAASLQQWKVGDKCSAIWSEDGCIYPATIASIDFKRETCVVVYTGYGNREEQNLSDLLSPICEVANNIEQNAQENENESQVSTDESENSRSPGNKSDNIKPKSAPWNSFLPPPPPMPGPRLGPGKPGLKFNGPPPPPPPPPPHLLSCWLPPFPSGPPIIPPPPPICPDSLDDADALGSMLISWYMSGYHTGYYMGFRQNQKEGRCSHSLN

Legend:
Test in all cases: co-IP; LUMIER-type assay, large mutant SYNCRIP experiment (Fig 4): protein A-tagged SYNCRIP WT, R to K mutants and controls as bait, SMN1-FIREFLY or PRMT1-FIREFLY as prey, co-transfected in HEK293 cells; IgG-coated plates; Log(2) signal with background of PA untransfected wells subtracted
[1] = biological target: BAT3, noninteracting control, protein A fusion (UniProt P46379)
[2] = biological target: T1, SPATA24, noninteracting control, protein A fusion (UniProt Q86W54)
T1 sequence: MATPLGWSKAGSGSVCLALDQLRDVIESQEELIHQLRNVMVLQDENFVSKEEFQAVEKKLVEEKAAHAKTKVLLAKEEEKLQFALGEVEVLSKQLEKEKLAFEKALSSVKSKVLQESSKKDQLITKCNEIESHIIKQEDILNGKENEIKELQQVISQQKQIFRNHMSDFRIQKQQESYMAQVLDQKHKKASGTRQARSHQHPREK

[3] = biological target: T2, U2AF1, noninteracting control, protein A fusion (UniProt Q01081)
T2 sequence: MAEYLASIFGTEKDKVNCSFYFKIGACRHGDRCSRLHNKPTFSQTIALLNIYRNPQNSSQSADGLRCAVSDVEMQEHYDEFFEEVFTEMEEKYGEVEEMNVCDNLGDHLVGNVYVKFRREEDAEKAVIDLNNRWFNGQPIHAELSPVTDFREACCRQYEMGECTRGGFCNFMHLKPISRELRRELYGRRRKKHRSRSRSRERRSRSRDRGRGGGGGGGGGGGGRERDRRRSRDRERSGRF

Measured: binding

PRMT1, LUMIER fusion (from UniProt Q99873 1-371) (enzyme)
no binding: all assays above

SMN1, wild type, LUMIER fusion (from UniProt Q16637 1-294)
no binding: all assays above
